According to the supplement of paper PMC10849652:
Some of the results follow.

Sequences of proteins named here, by UniProt entry; tags and fusion partners are left off. A change or cut given only in a name is not applied to a line headed by its entry.
UniProt Q32P28: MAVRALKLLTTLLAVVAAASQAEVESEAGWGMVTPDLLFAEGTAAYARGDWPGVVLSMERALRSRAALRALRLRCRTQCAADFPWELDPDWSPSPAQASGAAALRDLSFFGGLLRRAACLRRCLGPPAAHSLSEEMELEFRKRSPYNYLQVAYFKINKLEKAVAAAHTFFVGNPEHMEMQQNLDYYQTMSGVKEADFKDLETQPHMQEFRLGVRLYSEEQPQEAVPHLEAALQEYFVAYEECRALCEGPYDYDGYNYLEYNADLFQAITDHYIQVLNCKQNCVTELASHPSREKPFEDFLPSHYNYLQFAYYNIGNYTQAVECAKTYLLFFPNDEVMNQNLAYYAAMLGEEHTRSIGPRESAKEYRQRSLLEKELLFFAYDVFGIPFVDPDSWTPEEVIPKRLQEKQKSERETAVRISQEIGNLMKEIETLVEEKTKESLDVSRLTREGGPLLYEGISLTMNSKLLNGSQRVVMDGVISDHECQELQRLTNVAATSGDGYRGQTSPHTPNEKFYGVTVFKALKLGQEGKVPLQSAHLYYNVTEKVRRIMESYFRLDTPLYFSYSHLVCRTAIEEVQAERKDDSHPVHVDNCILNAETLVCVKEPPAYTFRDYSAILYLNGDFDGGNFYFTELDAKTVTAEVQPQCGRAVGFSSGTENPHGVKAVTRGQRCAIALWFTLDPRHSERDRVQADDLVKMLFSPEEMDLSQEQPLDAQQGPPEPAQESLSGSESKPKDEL
UniProt Q99567: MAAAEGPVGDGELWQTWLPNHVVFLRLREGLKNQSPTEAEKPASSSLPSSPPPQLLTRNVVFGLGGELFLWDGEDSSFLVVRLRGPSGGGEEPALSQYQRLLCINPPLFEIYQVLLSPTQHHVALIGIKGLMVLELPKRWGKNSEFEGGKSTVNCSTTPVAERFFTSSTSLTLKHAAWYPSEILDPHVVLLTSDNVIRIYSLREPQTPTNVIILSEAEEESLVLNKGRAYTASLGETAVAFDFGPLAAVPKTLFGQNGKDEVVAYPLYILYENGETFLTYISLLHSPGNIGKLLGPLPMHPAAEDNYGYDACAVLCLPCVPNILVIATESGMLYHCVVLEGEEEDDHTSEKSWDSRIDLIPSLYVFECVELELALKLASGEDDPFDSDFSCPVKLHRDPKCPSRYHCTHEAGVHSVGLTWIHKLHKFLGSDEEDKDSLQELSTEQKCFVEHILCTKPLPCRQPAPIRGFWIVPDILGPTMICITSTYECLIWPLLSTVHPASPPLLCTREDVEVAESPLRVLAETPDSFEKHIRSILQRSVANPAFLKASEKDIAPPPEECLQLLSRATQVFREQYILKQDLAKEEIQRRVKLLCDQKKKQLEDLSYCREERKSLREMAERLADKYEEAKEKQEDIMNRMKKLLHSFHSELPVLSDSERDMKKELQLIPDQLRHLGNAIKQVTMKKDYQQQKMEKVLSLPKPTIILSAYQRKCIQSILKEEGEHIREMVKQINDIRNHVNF
UniProt Q92882: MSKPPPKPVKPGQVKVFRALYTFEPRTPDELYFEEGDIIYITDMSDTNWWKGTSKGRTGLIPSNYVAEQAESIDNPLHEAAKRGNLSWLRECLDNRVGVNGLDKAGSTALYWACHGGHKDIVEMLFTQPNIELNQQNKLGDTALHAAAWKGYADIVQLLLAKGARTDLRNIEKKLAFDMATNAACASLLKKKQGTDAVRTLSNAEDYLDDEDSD
UniProt Q9NZJ9: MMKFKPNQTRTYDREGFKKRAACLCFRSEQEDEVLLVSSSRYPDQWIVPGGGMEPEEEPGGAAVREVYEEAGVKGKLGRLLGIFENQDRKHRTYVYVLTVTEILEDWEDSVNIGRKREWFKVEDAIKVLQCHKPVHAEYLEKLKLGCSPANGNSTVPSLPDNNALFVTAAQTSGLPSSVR
UniProt O43482, whole entry, looked up: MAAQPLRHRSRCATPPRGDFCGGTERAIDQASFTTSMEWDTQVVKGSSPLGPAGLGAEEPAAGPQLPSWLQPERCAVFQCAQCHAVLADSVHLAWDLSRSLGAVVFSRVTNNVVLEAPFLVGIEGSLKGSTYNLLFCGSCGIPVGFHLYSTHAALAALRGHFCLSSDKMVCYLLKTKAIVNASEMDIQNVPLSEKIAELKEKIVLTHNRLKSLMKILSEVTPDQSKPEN
UniProt Q9NTK5, whole entry, looked up: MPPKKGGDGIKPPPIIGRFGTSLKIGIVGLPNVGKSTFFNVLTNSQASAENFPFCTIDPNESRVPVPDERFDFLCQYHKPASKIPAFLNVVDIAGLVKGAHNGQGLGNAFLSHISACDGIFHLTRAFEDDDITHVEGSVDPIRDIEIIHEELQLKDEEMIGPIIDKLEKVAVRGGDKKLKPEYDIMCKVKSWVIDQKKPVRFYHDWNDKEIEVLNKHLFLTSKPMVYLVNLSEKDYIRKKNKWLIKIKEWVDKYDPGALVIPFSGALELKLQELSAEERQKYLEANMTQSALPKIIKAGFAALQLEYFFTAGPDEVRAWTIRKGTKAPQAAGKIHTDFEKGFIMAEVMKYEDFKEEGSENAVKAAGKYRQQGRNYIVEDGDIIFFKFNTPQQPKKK
UniProt Q9Y5A7: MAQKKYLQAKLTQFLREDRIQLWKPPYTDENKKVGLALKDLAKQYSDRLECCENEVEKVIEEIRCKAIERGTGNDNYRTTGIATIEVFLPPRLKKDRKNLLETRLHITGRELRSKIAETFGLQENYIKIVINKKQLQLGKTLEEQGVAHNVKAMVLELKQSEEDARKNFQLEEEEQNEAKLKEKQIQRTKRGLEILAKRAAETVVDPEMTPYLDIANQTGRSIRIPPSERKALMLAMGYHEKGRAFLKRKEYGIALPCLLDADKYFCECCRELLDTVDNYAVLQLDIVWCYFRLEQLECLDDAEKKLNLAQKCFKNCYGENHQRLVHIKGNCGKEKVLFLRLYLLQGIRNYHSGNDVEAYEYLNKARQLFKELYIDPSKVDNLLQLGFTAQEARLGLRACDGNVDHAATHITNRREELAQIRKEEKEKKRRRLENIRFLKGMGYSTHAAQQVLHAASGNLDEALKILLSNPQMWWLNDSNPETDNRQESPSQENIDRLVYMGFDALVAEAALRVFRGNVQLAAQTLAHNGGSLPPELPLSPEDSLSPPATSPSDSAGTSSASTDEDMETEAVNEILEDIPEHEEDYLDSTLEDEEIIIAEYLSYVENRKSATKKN
UniProt Q9Y5Y2: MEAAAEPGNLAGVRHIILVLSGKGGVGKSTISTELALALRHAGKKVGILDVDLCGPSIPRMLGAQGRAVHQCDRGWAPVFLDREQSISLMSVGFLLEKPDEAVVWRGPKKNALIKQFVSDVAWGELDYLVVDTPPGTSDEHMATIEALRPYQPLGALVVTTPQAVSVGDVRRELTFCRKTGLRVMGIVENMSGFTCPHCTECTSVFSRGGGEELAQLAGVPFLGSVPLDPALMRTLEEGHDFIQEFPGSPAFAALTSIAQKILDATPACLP
UniProt Q6PK18: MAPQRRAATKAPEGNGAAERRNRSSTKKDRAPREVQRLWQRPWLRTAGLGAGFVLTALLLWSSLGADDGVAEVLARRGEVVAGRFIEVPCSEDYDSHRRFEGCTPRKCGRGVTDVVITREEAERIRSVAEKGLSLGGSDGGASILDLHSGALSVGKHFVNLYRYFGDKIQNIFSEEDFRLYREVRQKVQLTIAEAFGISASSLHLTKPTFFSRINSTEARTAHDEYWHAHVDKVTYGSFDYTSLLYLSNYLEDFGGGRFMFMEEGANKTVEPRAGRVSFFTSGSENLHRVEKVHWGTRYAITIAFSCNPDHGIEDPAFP
UniProt Q96E22: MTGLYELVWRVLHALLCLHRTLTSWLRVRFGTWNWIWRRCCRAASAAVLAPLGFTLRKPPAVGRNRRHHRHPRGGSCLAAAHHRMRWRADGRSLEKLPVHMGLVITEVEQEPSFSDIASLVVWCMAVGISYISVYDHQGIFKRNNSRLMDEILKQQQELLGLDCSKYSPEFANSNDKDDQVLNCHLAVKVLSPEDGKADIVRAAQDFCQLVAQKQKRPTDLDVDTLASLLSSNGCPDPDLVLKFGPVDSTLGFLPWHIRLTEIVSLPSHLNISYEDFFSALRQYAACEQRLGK
UniProt Q8TB37: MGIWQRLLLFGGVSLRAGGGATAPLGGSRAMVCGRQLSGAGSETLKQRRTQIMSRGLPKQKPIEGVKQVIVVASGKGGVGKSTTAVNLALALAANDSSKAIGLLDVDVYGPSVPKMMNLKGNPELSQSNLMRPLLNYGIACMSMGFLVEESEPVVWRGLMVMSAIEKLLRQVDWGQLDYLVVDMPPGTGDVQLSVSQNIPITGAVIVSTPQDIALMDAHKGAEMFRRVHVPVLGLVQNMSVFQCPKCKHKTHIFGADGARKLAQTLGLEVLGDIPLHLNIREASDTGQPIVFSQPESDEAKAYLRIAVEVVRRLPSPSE
UniProt Q02218: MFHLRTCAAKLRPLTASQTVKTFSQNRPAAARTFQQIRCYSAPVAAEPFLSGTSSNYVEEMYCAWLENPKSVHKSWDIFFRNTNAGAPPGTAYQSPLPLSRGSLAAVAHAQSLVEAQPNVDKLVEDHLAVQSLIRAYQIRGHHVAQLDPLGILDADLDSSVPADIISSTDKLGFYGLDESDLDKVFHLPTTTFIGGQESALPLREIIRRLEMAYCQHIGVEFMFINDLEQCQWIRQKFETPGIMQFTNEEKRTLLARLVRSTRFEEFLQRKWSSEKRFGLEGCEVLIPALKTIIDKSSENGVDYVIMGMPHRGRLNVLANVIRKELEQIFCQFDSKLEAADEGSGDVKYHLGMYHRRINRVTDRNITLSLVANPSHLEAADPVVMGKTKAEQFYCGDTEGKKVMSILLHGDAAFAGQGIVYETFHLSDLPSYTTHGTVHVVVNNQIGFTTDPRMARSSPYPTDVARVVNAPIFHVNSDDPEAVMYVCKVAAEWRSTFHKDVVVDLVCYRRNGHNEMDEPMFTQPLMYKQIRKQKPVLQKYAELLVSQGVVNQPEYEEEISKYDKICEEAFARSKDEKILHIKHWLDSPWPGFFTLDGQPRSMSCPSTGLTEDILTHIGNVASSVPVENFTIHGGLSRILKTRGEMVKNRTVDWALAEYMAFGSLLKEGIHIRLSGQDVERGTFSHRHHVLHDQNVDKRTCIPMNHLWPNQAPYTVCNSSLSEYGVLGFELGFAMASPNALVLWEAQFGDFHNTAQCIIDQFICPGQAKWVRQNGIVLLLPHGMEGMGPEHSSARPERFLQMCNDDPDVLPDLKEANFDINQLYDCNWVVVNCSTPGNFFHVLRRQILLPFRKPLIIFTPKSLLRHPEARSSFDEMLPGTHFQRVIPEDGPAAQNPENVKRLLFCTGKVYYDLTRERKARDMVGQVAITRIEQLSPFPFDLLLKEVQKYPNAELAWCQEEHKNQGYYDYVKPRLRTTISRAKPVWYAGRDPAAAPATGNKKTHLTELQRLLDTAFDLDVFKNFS
UniProt P13674: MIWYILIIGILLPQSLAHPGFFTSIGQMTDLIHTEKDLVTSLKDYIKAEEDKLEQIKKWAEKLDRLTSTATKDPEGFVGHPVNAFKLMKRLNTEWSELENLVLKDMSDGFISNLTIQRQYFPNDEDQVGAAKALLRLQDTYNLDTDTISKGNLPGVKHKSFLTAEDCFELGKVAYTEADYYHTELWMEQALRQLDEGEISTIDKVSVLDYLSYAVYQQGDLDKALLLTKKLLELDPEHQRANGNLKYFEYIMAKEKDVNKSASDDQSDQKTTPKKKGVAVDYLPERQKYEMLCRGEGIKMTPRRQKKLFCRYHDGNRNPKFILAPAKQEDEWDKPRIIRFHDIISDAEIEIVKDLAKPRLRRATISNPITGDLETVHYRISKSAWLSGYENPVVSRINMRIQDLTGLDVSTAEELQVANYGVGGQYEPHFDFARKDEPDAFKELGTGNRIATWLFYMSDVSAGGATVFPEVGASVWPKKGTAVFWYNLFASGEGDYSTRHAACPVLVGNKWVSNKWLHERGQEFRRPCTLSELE
UniProt Q9H857: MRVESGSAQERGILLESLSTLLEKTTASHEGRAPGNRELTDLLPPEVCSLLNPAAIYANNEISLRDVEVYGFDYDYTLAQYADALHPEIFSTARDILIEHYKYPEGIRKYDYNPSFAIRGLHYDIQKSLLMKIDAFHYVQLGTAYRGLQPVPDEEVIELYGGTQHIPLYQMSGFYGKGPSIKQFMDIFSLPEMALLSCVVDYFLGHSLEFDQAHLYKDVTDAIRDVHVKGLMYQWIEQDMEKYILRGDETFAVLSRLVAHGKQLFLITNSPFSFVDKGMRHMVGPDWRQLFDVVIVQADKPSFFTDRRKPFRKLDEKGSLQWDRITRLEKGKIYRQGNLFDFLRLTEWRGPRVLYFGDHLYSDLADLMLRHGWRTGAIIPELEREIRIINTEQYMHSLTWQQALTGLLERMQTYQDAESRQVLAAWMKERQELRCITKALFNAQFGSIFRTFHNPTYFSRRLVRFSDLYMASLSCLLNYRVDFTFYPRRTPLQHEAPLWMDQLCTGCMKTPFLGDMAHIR
UniProt P61970, whole entry, looked up: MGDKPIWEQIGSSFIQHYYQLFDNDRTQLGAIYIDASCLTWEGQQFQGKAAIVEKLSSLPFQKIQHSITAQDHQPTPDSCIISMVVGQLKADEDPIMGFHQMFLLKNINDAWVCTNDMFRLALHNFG

Compound: CON(C)C(=O)N1N=C(c2cc(F)ccc2F)S[C@@]1(CCCN)c1ccccc1 [filanesib]
Test: log2 fold change, soluble protein after heating vs DMSO (PISA); higher = thermal stabilisation; K562 cells, 10 uM, 30 min; active = over 0.2 and 3.5 SD of the protein, either way, in both replicates (recomputed)
Summary of the method: (§1)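 K562 cells (2×10^6 cells/mL) were treated with 10 μM compound for 30 min, and aliquots were heated for 3 min over 48°C-58°C. Pooled aliquots were extracted in PBS with 0.5% NP-40 at 4°C, and the supernatant after 21,000xg for 90 min was measured by TMTpro 16plex LC-MS/MS with channel sums equalised. Reported thermal stability, relative to control samples and from duplicates, is a log2 fold change.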

log2 fold change, inactive:
P3H1 (UniProt Q32P28) 0.116, NUP88 (UniProt Q99567) 0.195, OSTF1 (UniProt Q92882) 0.048, NUDT4 (UniProt Q9NZJ9) -0.012, NUSAP1 (UniProt Q9BXS6) 0.308, OIP5 (UniProt O43482) 0.018, OLA1 (UniProt Q9NTK5) -0.059, NUB1 (UniProt Q9Y5A7) 0.147, NUBP2 (UniProt Q9Y5Y2) -0.044, OGFOD3 isoform 2 (UniProt Q6PK18) -0.04, NUS1 (UniProt Q96E22) 0.005, NUBPL (UniProt Q8TB37) -0.095, NUP42 (UniProt O15504) 0.381, OGDH (UniProt Q02218) 0.017, P4HA1 isoform 2 (UniProt P13674) 0.187, NT5DC2 isoform 2 (UniProt Q9H857) -0.046, NUTF2 (UniProt P61970) -0.006

Compound: CO[C@H]1C[C@@H]2CC[C@@H](C)[C@@](O)(O2)C(=O)C(=O)N2CCCC[C@H]2C(=O)O[C@H]([C@H](C)C[C@@H]2CC[C@H](n3cnnn3)[C@H](OC)C2)CC(=O)[C@H](C)/C=C(\C)[C@@H](O)[C@@H](OC)C(=O)[C@H](C)C[C@H](C)/C=C/C=C/C=C/1C [zotarolimus]
Test: as above
Summary of the method: as §1

log2 fold change, inactive:
NT5C2 (UniProt P49902) 0.011, ORC4 (UniProt O43929) 0.041, NUDT16L1 (UniProt Q9BRJ7) -0.017, OS9 (UniProt Q13438) -0.009, NUDT19 (UniProt A8MXV4) 0.026, PABPC1 (UniProt P11940) -0.048, NT5DC3 (UniProt Q86UY8) -0.021, NUP37 (UniProt Q8NFH4) -0.023, OPTN (UniProt Q96CV9) 0.109, NUP43 (UniProt Q8NFH3) 0.045, OTUD7B (UniProt Q6GQQ9) 0.037, NSUN6 (UniProt Q8TEA1) 0.007, NUP153 (UniProt P49790) -0.016, P4HA1 (UniProt P13674) 0.026, OTUB1 (UniProt Q96FW1) 0.036, P3H1 (UniProt Q32P28) 0.071, NUP88 (UniProt Q99567) 0.072, OSTF1 (UniProt Q92882) -0.031, NUDT4 (UniProt Q9NZJ9) 0.033, NUSAP1 (UniProt Q9BXS6) 0.011, OIP5 (UniProt O43482) 0.058, OLA1 (UniProt Q9NTK5) 0.007, NUB1 (UniProt Q9Y5A7) 0.039, NUBP2 (UniProt Q9Y5Y2) 0.039, OGFOD3 isoform 2 (UniProt Q6PK18) -0.054, NUS1 (UniProt Q96E22) -0.02, NUBPL (UniProt Q8TB37) 0.062, NUP42 (UniProt O15504) 0.025, OGDH (UniProt Q02218) 0.058, P4HA1 isoform 2 (UniProt P13674) 0, NT5DC2 isoform 2 (UniProt Q9H857) -0.007, NUTF2 (UniProt P61970) 0.003

Compound: COc1cc(C(=O)O)ccc1NC(=O)[C@@H]1N[C@@H](CC(C)(C)C)[C@](C#N)(c2ccc(Cl)cc2F)[C@H]1c1cccc(Cl)c1F [idasanutlin]
Test: as above
Summary of the method: as §1

log2 fold change, inactive:
NT5C2 (UniProt P49902) -0.025, ORC4 (UniProt O43929) -0.033, NUDT16L1 (UniProt Q9BRJ7) -0.089, OS9 (UniProt Q13438) 0.1, NUDT19 (UniProt A8MXV4) -0.037, PABPC1 (UniProt P11940) 0.076, NT5DC3 (UniProt Q86UY8) 0.019, NUP37 (UniProt Q8NFH4) -0.019, OPTN (UniProt Q96CV9) 0.025, NUP43 (UniProt Q8NFH3) 0.003, OTUD7B (UniProt Q6GQQ9) 0.001, NSUN6 (UniProt Q8TEA1) -0.016, NUP153 (UniProt P49790) 0.124, P4HA1 (UniProt P13674) 0.049, OTUB1 (UniProt Q96FW1) -0.041, P3H1 (UniProt Q32P28) 0.121, NUP88 (UniProt Q99567) 0.065, OSTF1 (UniProt Q92882) -0.071, NUDT4 (UniProt Q9NZJ9) -0.02, NUSAP1 (UniProt Q9BXS6) 0.032, OIP5 (UniProt O43482) -0.069, OLA1 (UniProt Q9NTK5) -0.023, NUB1 (UniProt Q9Y5A7) 0.111, NUBP2 (UniProt Q9Y5Y2) -0.052, OGFOD3 isoform 2 (UniProt Q6PK18) -0.048, NUS1 (UniProt Q96E22) -0.113, NUBPL (UniProt Q8TB37) 0.025, NUP42 (UniProt O15504) 0.239, OGDH (UniProt Q02218) -0.185, P4HA1 isoform 2 (UniProt P13674) 0.115, NT5DC2 isoform 2 (UniProt Q9H857) -0.076, NUTF2 (UniProt P61970) 0.003
